The campaign covered roughly 1,400 compounds. Fewer than 10 were called active.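 How the source made its calls: active means fluorescence-lowering compounds whose fitted half-maximal concentration is at or below ten times the highest valid dose tested; inconclusive means flat curve at 30 to 70% inhibition, or poor fit; inactive means the rest.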 Some of the results follow.

The chains behind the UniProt entries cited, without tags or fusion partners. Where a name states a change or a piece, a line headed by the entry shows the natural chain unless it says otherwise.
UniProt O15379: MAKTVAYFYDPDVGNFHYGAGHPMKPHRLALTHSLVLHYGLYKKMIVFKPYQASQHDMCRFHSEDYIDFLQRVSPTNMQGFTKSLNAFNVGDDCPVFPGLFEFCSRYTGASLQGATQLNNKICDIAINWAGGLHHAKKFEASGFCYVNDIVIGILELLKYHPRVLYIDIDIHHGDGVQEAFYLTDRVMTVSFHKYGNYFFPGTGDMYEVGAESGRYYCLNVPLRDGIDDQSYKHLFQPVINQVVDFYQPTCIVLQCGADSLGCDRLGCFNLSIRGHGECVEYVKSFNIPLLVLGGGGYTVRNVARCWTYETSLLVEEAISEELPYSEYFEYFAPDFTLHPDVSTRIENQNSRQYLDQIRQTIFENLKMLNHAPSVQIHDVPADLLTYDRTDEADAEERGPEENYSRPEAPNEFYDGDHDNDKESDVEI

This experiment concerns the target Histone deacetylase 3 (Homo sapiens) (UniProt O15379). Nature of the experiment: inhibition of human HDAC3 enzymatic activity – biochemical, fluorescence, cherry-picked samples, counter-screen for JMJD2C/GASC1 demethylase inhibitor project, dose response (AID 485318).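 Further: enzyme preincubated with compound before substrate and trypsin were added; 0% = neutral control wells and -100% = SAHA positive control wells.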 The settings on record: recombinant HDAC3, fluorogenic peptide/trypsin coupled; at 12 µM (top of the series). A general note: Counterscreens check selectivity or assay interference.
Consider `NC(=O)NC(=O)CSc1nnc(-c2ccco2)n1Cc1ccccc1`, for which the activity change, negative = inhibition was inactive: 0.0902%. The same measure for `O=C1/C(=C/c2cccs2)COc2ccccc21`: inactive: 0.625%. `CNC[C@@H]1Oc2c(NC(=O)Nc3ccccc3)cccc2C(=O)N([C@@H](C)CO)C[C@H]1C`: the activity change, negative = inhibition is inactive: 0.196%.

On to `COc1ccc(/C=N/n2c(=O)[nH]c3c([nH]c4ccc(Br)cc43)c2=O)cc1CN1CCOCC1`, for which the activity change, negative = inhibition was inactive: 0.399%. Take `CCOc1ccc(N2CC(C(=O)Nc3nnc(Cc4ccc(OC)cc4)s3)CC2=O)cc1` (stereo not drawn): the activity change, negative = inhibition is inactive: 0.166%. On to `CCOC(=O)c1csc(N/N=C2\CCc3ccccc32)n1`, for which the activity change, negative = inhibition was inactive: 0.158%. On to `CNC(=O)c1sccc1-n1cccc1`, for which the activity change, negative = inhibition was inactive: 0.0853%. In the case of `OC1(c2cccc(F)c2)CCN(Cc2ccncc2)CC1` it was inactive: 0.341%.

For `CCCC(=O)Nc1ccc(Oc2ccc(NC(=O)CCC)cc2)cc1`, the activity change, negative = inhibition is inactive: 0.3%. Turning to `Cc1cccc(N2CCN(C(=O)c3ccc(CS(=O)(=O)c4ccccc4C)o3)CC2C)c1` (stereo not drawn), the activity change, negative = inhibition is inactive: -0.0775%. As for `Cc1cccc(OCCCn2c(=O)oc3ccc(C)cc32)c1`, the activity change, negative = inhibition was inactive: -0.266%. As for `COc1ccc(C2CC(c3cccs3)=NN2S(=O)(=O)c2ccc(C)cc2)cc1` (stereo not drawn), the activity change, negative = inhibition was inactive: 0.501%. `Cc1noc(C)c1S(=O)(=O)N(C)C[C@H]1Oc2c(cccc2N(C)C)C(=O)N([C@H](C)CO)C[C@@H]1C`: the activity change, negative = inhibition is inactive: -0.198%.

In the case of `c1ccc2c(c1)ccc1nnc(-c3ccc4c(c3)OCO4)n12`, the activity change, negative = inhibition is inactive: 0.283%. The same measure for `O=C(Nc1ccccc1C(=O)N1CCOCC1)c1noc2c1CCCC2`: inactive: 0.794%.

As for `O=C(Nc1nnc(CCS(=O)(=O)c2ccc3ccccc3c2)s1)c1cccs1`, the activity change, negative = inhibition is inactive: -1.14%.

In the case of `O=C(c1ccc(Cn2cc([N+](=O)[O-])cn2)o1)N1CCCCCC1`, the activity change, negative = inhibition was inactive: 0.287%. For the compound `CC1=C(C(=O)OC(C)C)C(c2ccccc2)NC(=S)N1C` (stereo not drawn), the activity change, negative = inhibition is inactive: -0.136%. As for `CCOC(=O)c1sc(NC(=O)CSc2nnc(-c3ccc(OC)cc3)n2CCOC)nc1C`, the activity change, negative = inhibition was inactive: 0.362%.

Turning to `COc1ccc(-c2nn(-c3ccccc3)cc2CNC(C)Cn2cncn2)c(F)c1` (stereo not drawn), the activity change, negative = inhibition was inactive: 0.563%. `CC(=O)c1c(C(C)=O)c(C)n(-c2nc(-c3cccs3)c(C)s2)c1C`: the activity change, negative = inhibition is inactive: -0.518%. `O=C(CCc1ccc(S(=O)(=O)NCc2ccccc2)cc1)NCc1ccc2c(c1)OCO2`: the activity change, negative = inhibition is inactive: -0.263%. `CSc1nc(N)nc2c1ncn2CC(=O)N[C@H](C)c1cccc2ccccc12`: the activity change, negative = inhibition was inactive: -0.21%.

Turning to `CCOc1ccc(C(=O)Nc2nnc(C(C)C)s2)cc1OCC`, the activity change, negative = inhibition was inactive: 0.274%. Turning to `C[C@H]1CN(CCc2ccccc2)C(=O)[C@@H]1CC(=O)NCc1ccccc1`, the activity change, negative = inhibition is inactive: -0.42%.

As to `CC(C)(C)c1ccc(S(=O)(=O)/N=C2\C=C(NS(=O)(=O)c3ccccc3)C(=O)c3ccccc32)cc1`, the activity change, negative = inhibition is inactive: 1.13%. The same measure for `CCC(C)(C(=O)NC1CCCC1)N(Cc1cccs1)C(C)=O` (stereo not drawn): inactive: -0.798%; for `Cc1[nH]n2c(=O)c3c(nc2c1-c1ccccc1)CCCC3`: inactive: 0.301%; for `COc1ccccc1/C=C/C(=O)Nc1ccc(N2CCOCC2)cc1`: inactive: 0.497%. As for `C[C@H]1CN([C@@H](C)CO)C(=O)c2cc(NS(=O)(=O)c3ccc(Cl)cc3)ccc2O[C@@H]1CN(C)CC1CCCCC1`, the activity change, negative = inhibition is inactive: -0.516%. In the case of `CC(C)(C)NNC(=S)Nc1cccc(C(F)(F)F)c1` it was inactive: 0.248%; in that of `CC[C@H]1CCCCc2ccccc2[C@@H](C(=O)C[C@@H](O)CC(C)=O)OC1=O`, inactive: 1.23%. Take `COCCCNC(=S)NNC(=O)c1ccccn1`: the activity change, negative = inhibition is inactive: 0.84%.

Regarding `Cc1cc(C)n(-c2nnc(C)n2/N=C/c2ccco2)n1`, the activity change, negative = inhibition is inactive: 0.301%. The same measure for `Cc1ccc(-c2csc(NC(=O)CSc3nc(C)cc(=O)[nH]3)n2)cc1`: inactive: 0.147%; for `O=Cc1ccc(C(=O)OCC(=O)Nc2ccc(F)cc2F)cc1`: inactive: 0.111%; for `O=C(CC1NC(=O)NC1=O)Nc1ccccc1` (stereo not drawn): inactive: -0.843%.

Turning to `O=C(NC1CCCc2ccccc21)c1ccc(Br)cc1` (stereo not drawn), the activity change, negative = inhibition was inactive: 0.261%. As to `C#CCOCCOCCOCCNc1nc(N2CCN(C(=O)CCCCCCCCCCNC(=O)[C@H](CCCCN)n3cc(CCO)nn3)CC2)nc(N2CCN(C(=O)CCCCCCCCCCNC(=O)[C@H](CCCCN)n3cc(C[C@@H](C)CC)nn3)CC2)n1`, the activity change, negative = inhibition was inactive: 0.584%. Consider `CCCN1C(=O)c2ccc(C(=O)Nc3cc(C)ccc3O)cc2C1=O`, for which the activity change, negative = inhibition is inactive: 0.175%. Consider `COc1ccc(C2/C(=C(/O)c3ccccc3)C(=O)C(=O)N2CCN2CCOCC2)c(OC)c1` (stereo not drawn), for which the activity change, negative = inhibition is inactive: -0.789%. As to `COC(=O)c1sc(S(=O)(=O)NCc2ccccc2)c(C(=O)OC)c1C`, the activity change, negative = inhibition was inactive: -0.0892%. Turning to `O=C(c1ccncc1)N1N=C(C2CCCCC2)CC1(O)C(F)(F)F` (stereo not drawn), the activity change, negative = inhibition is inactive: 0.32%. The same measure for `Cc1ccc(NC(=O)CSc2ncccn2)c([N+](=O)[O-])c1`: inactive: 0.338%; for `COc1ccc(NC(=O)N(C)C[C@H]2Oc3c(NC(=O)C4CCCCC4)cccc3C(=O)N([C@H](C)CO)C[C@@H]2C)cc1`: inactive: 0.0572%.

With `CCOc1ccc(CN2CCN(Cc3nc(C(C)C)cs3)CC2CCO)cc1` (stereo not drawn), the activity change, negative = inhibition is inactive: -0.334%.

Regarding `COc1ccc(CN(Cc2nc3ccccc3c(=O)[nH]2)C(=O)NC2CCCCC2)cc1`, the activity change, negative = inhibition was inactive: 1.48%. For `CCCCCC1CC(=O)N(Cc2ccccc2)C(=O)N1` (stereo not drawn), the activity change, negative = inhibition is inactive: 0.0846%. As for `N=c1nc(-c2ccccc2)ccn1O`, the activity change, negative = inhibition is inactive: -0.505%. Turning to `c1ccc(-c2ccccc2OCCN2CCCC2)cc1`, the activity change, negative = inhibition is inactive: -0.955%.

Take `CN1CCN(Cc2c(C#N)c3ccccc3n2C)CC1`: the activity change, negative = inhibition was inactive: -0.48%.

For the compound `COc1ccc(C2C(C#N)=C(N)Oc3c2sc2nc(C)cc(C)c32)cc1` (stereo not drawn), the activity change, negative = inhibition is inactive: -0.587%. The same measure for `CSc1ccccc1C(=O)Nc1ccc(C)c(C)c1`: inactive: -0.311%; for `O=C(Nc1ccccc1)N(O)c1ccc(Cl)cc1`: inactive: -0.0344%; for `CC(=O)Nc1ccc(NC(=O)C2CCN(C(=O)c3cccs3)CC2)cc1`: inactive: 1.22%. With `C[C@H](CO)N1C[C@H](C)[C@@H](CN(C)S(=O)(=O)c2ccccc2)Oc2ccc(NS(=O)(=O)c3ccc(F)cc3)cc2C1=O`, the activity change, negative = inhibition was inactive: 0.496%. As for `CS(=O)(=O)N(CC(=O)N1CCCCCC1)c1ccccc1`, the activity change, negative = inhibition was inactive: 0.237%. As for `COc1ccc(C(=O)NCc2cccnc2)cc1S(=O)(=O)N1CCOCC1`, the activity change, negative = inhibition was inactive: 0.579%. In the case of `Cc1cc2c(cc1C)NC(CC(=O)NCc1ccccc1)C(=O)N2` (stereo not drawn), the activity change, negative = inhibition was inactive: -0.289%. As to `CCCCNC(=O)c1nn2cc(Br)cnc2c1Br`, the activity change, negative = inhibition is inactive: 0.783%.

On to `COc1cccc(CSc2nnc(C(F)(F)F)n2Cc2ccc(F)cc2)c1`, for which the activity change, negative = inhibition is inactive: 0.567%. In the case of `O=C(COc1ccc(NC(=O)c2ccccc2)cc1)c1ccccc1`, the activity change, negative = inhibition is inactive: -0.121%.

Regarding `CC(C)C[C@H](NC(=O)N1CCCCCC1)C(=O)O`, the activity change, negative = inhibition is inactive: 0.653%. The same measure for `CCOC(=O)c1c(C)[nH]c(C)c1S(=O)(=O)N(C)CC(=O)N(C)Cc1ccccc1`: inactive: -0.313%. For `O=c1[nH]c(S)nc2sc3c(c12)CCCC3`, the activity change, negative = inhibition was inactive: -1.25%. Consider `O=C1NCCN1CCNS(=O)(=O)c1ccccc1[N+](=O)[O-]`, for which the activity change, negative = inhibition was inactive: -0.167%. `O=C1c2sc3nc4c(c(=O)n3c2C(=O)N1c1ccccc1)CCC4`: the activity change, negative = inhibition was inactive: 0.641%. The same measure for `O=c1[nH]cc(N2CCCCCC2)c(=O)[nH]1`: inactive: -0.0271%; for `C[C@@H](CN1CCC[C@H]1CN1C(N)=NC[C@@H]1Cc1ccccc1)N1C[C@@H](Cc2ccccc2)N(CCc2ccc(Cl)c(Cl)c2)C1=N`: inactive: -0.0869%.

With `CC(C)NC(=O)Nc1ccc2c(c1)C(=O)N([C@H](C)CO)C[C@H](C)[C@@H](CN(C)C(=O)Nc1ccccc1)O2`, the activity change, negative = inhibition was inactive: -0.351%. On to `Cc1cccc(-n2c(SCC(=O)Nc3ccc4c(c3)OCO4)nnc2-c2ccoc2C)c1`, for which the activity change, negative = inhibition is inactive: -0.505%. In the case of `C#CCOCCOCCOCCNc1nc(N2CCOCC2)nc(N2CCN(C(=O)[C@H](CCCN=C(N)N)n3cc(C(N)[C@@H](C)CC)nn3)CC2)n1` (stereo partly drawn), the activity change, negative = inhibition is inactive: 0.32%. With `Cc1ccc(C(=O)NCc2ccco2)cc1Br`, the activity change, negative = inhibition is inactive: 0.47%. Turning to `N#Cc1ccc(C23OCCN2CCn2nc4ccccc4c23)cc1` (stereo not drawn), the activity change, negative = inhibition is inactive: 0.331%. Consider `COc1ccc(NC(=O)N(C)C[C@H]2Oc3c(NS(=O)(=O)c4cn(C)cn4)cccc3C(=O)N([C@H](C)CO)C[C@@H]2C)cc1`, for which the activity change, negative = inhibition is inactive: 0.831%. `O=C(Nc1ccccc1)N1CCSCC1`: the activity change, negative = inhibition was inactive: 0.906%. In the case of `COc1ccc(OC)c(/C=C/C(=O)Nc2cccc(S(=O)(=O)NC3=NCCCCC3)c2)c1` it was inactive: -0.822%; in that of `O=C(O)CCCC(=O)Nc1ccc(C(=O)NCc2cccnc2)cc1`, inactive: 0.498%; in that of `Cc1nnnn1/C(=C\c1ccccc1)C(=O)OCC(=O)NC(C)(C)C`, inactive: 0.891%. Regarding `O=C(Cc1ccccc1Cl)N1CCN(c2ccccn2)CC1`, the activity change, negative = inhibition is inactive: -0.0317%. Consider `Cc1nc2c3cc(F)ccc3n(Cc3ccccc3)c2s1`, for which the activity change, negative = inhibition was inactive: -0.478%. The same measure for `CCC(=O)N1CCc2cc(S(=O)(=O)CCC(=O)Nc3cccc(F)c3)ccc21`: inactive: 1.26%; for `Cn1c(=O)c2[nH]c(=O)cnc2n(C)c1=S`: inactive: 0.57%.

In the case of `CCc1ccc(NC(=O)C/C(C)=N/NC(=O)COc2ccc(C)cc2Br)cc1`, the activity change, negative = inhibition is inactive: 0.354%. For the compound `O=C(O)CCNc1ccc2c(c1)OCCO2`, the activity change, negative = inhibition is inactive: 0.409%.

As to `COCCn1c(C(C)C)nc2sc3ccccc3c(=O)c2c1=O`, the activity change, negative = inhibition was inactive: 0.759%. The same measure for `O=C(Oc1ccc(N2C(=O)CCC2=O)cc1)c1ccccc1`: inactive: -0.349%. In the case of `Cc1ccc(C(=O)Oc2csc(=S)n2C(=O)c2ccc(C)cc2)cc1` it was inactive: -0.524%.

The values are drawn from PubChem BioAssay AID485318 (Broad Institute, 2010).
